Values of other authors as cited in US20220323408A1, “COMPOSITION USED FOR COMBATING METABOLIC DISEASES AND USES OF COMPOSITION” (Institute of Zoology, Chinese Academy of Sciences, priority 2019, published 2022).
For at least one compound, name, drawing or mass did not settle the structure.

Tests used:
obese T2DM subjects = settings: translational preclinical models and obese T2DM subjects; cited from earlier work
[1] = tested on: HFD-induced Wistar rat NASH model; settings: cited from earlier work
C57BL/6J obese mice = settings: cited from earlier work

Cc1ccc(-c2cc(C(F)(F)F)nn2-c2ccc(S(N)(=O)=O)cc2)cc1 [Celecoxib]
insulin sensitivity (obese T2DM subjects): partially restore
steatohepatitis and inflammation [1]: reverse
HbA1c level (C57BL/6J obese mice): slightly reduce
glucose tolerance (C57BL/6J obese mice): improve
insulin level (C57BL/6J obese mice): increase
